Results: PMC5972149
Results are given in words; binding and its absence hold for the method and conditions named. In cells and extracts the contact can be indirect. Some results given as binding are weak or reduced against the parent protein; the word gives no strength.

By UniProt entry, the sequences of proteins in these tests, tags left out.
UniProt P23769: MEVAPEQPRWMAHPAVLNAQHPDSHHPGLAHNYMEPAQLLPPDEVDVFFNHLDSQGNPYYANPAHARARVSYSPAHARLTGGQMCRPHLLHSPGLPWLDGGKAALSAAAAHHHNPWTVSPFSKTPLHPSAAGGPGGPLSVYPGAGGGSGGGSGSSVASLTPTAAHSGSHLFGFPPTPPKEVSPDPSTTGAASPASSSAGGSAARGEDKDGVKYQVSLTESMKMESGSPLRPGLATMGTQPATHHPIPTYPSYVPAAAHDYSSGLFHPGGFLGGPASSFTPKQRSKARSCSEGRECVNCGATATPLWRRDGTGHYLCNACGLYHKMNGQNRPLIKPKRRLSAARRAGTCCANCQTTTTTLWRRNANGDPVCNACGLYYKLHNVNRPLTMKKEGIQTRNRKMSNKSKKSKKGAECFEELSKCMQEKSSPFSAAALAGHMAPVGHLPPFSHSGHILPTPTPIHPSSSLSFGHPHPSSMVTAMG
UniProt Q9H792: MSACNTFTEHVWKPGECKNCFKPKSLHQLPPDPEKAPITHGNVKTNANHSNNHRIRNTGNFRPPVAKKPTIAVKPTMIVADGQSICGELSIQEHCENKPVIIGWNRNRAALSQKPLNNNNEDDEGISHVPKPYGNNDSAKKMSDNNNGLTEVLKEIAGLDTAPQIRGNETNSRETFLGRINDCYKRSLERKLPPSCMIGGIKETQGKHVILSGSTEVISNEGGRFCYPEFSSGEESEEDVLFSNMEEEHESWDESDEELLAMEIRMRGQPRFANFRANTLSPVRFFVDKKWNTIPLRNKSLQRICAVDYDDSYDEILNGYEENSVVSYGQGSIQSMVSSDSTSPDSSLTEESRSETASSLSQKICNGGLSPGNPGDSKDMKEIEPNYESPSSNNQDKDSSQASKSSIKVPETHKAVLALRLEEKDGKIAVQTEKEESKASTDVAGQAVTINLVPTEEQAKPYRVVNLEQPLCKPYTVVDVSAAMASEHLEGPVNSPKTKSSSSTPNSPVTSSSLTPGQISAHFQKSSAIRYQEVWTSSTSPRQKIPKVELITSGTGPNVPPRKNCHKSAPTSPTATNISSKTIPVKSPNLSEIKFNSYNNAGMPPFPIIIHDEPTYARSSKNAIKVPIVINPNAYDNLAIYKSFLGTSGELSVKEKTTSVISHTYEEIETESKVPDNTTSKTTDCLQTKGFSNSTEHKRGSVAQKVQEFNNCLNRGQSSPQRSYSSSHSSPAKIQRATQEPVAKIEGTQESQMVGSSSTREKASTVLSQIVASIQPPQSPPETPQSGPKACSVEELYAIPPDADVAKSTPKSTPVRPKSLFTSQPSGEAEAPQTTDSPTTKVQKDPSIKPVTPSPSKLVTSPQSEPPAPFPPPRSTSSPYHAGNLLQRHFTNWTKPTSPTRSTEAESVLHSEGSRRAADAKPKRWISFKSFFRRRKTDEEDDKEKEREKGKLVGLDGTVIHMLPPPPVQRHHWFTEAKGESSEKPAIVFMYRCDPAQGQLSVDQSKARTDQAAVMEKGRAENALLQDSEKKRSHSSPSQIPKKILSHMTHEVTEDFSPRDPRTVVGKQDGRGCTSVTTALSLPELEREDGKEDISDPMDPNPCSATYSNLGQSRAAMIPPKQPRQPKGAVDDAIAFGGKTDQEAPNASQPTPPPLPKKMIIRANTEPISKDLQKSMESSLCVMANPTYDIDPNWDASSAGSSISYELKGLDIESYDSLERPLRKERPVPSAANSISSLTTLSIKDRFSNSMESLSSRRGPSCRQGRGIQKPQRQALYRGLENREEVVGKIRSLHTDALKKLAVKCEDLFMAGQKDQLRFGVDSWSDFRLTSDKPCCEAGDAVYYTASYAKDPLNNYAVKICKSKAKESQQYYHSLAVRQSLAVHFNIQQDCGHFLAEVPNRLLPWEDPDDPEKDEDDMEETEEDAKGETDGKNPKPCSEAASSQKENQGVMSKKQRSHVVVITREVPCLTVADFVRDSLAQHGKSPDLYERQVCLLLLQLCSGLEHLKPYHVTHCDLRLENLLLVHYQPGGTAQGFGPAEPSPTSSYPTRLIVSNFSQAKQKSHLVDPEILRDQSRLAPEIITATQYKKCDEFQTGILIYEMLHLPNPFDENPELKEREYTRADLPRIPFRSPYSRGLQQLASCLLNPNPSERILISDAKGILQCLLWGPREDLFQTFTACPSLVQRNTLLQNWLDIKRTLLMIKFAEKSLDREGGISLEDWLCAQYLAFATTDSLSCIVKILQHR

Target: GATA-binding protein 2 (human (endogenous in HUVEC)) (UniProt P23769)
Experiment: co-IP; HUVEC lysates (50 mM HEPES pH 7.4, 150 mM NaCl, 1% Triton X-100, 1% sodium deoxycholate, 0.1% SDS, 10% glycerol) diluted 1:1 with HNTG buffer; precipitated with mouse anti-GATA2 agarose or normal mouse IgG agarose; western blot; cells on collagen I, fibronectin or uncoated plastic dishes

binding: binds
Substance: Pseudopodium-enriched atypical tyrosine kinase 1 (from UniProt Q9H792 1-1746)
